Test results reported in article PMC5343488, “Epilepsy and intellectual disability linked protein Shrm4 interaction with GABABRs shapes inhibitory neurotransmission” (Nature Communications, 2017).
Numbering of substitutions follows the chain as printed. Results are given in words; binding and its absence hold for the method and conditions named. For part of these data: A result given as binding can be weak or reduced; the word gives no strength. For part of these data: Sequences can lack the tags named with a protein. For part of these data: Binding seen in cells or lysates may run through a third protein.

Tests used:
Shrm4-V5 (human) = molecular target: T1, Shrm4-V5 (human) (UniProt Q9ULL8); test: co-IP; lysates of transfected HEK293 cells; antibody to the tag of Shrm4 (HA, GFP, V5) at 4 °C overnight, protein A-agarose, western blot
T1 sequence: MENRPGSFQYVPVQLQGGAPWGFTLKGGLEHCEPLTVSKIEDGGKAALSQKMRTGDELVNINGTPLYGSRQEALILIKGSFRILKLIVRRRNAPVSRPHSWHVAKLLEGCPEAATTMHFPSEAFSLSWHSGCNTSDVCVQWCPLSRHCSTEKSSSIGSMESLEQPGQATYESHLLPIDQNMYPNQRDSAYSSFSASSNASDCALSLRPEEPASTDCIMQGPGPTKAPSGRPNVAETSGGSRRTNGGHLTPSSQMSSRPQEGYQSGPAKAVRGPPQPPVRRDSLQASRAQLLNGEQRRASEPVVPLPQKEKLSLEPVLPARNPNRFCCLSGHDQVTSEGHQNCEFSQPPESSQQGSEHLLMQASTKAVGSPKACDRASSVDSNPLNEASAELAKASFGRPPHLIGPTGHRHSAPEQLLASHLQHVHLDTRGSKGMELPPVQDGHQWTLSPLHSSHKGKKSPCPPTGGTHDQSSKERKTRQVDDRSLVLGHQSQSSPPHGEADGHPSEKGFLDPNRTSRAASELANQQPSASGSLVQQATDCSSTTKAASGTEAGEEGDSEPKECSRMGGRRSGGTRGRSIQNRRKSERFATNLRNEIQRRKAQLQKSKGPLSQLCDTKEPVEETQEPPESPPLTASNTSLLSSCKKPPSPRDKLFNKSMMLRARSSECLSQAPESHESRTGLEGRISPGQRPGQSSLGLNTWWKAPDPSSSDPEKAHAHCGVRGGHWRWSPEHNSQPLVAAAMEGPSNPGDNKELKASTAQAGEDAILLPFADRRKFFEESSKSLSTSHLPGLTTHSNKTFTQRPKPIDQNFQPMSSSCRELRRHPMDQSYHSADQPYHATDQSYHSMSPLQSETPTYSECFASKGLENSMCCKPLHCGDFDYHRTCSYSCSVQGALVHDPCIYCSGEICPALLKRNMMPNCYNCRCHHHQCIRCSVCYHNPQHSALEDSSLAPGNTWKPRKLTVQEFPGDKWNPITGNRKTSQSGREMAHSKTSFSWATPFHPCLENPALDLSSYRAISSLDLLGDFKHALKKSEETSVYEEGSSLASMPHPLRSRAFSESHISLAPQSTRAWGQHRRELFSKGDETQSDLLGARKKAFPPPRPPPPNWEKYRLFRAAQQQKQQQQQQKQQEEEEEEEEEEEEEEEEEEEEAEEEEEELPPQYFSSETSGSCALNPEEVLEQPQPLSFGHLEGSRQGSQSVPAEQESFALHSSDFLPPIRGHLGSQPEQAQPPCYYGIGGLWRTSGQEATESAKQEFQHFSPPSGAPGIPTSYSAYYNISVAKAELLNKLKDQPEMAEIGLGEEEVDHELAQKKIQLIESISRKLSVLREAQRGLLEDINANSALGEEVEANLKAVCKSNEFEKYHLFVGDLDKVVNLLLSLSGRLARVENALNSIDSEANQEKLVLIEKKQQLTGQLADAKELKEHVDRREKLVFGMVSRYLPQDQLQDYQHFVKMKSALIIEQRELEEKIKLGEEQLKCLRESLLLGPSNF

[1] = molecular target: T2, mutant GST-PDZ (AA) (Shrm4-PDZ domain K26G27/AA) (human) (UniProt Q9ULL8); test: pull-down; in vitro: purified His-tagged DIC incubated with GST-PDZ or mutant GST-PDZ (AA) for 3 h at room temperature, washed four times with PBS; western blot; both purified
T2 sequence: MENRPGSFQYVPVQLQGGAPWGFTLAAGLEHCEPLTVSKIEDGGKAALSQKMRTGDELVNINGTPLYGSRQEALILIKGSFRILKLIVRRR

[2] = molecular target: T3, GST-PDZ (Shrm4-PDZ domain, aa 1–91) (human, UniProt Q9ULL8 1-91); test: as above
T3 construct: Shrm4 (Shroom4), encoded by KIAA1202, PDZ domain, aa 1-91; in pGEX-4T-1, which should put GST at the N-terminus; source: E. coli BL21, purified using standard procedures
T3 sequence (looked up): T2 sequence with A26K, A27G

[3] = molecular target: T4, Shrm4, endogenous in rat brain (rat (endogenous in brain)) (UniProt F1LVL5); test: co-IP; adult rat brain extracts (50 mM TRIS-HCl, 200 mM NaCl, 1 mM EDTA, 1% NP40, 1% Triton X-100, pH 7.4); antibody (anti-Shrm4 or anti-GABAAR δ) at 4 °C overnight, protein A-agarose, western blot
T4 sequence: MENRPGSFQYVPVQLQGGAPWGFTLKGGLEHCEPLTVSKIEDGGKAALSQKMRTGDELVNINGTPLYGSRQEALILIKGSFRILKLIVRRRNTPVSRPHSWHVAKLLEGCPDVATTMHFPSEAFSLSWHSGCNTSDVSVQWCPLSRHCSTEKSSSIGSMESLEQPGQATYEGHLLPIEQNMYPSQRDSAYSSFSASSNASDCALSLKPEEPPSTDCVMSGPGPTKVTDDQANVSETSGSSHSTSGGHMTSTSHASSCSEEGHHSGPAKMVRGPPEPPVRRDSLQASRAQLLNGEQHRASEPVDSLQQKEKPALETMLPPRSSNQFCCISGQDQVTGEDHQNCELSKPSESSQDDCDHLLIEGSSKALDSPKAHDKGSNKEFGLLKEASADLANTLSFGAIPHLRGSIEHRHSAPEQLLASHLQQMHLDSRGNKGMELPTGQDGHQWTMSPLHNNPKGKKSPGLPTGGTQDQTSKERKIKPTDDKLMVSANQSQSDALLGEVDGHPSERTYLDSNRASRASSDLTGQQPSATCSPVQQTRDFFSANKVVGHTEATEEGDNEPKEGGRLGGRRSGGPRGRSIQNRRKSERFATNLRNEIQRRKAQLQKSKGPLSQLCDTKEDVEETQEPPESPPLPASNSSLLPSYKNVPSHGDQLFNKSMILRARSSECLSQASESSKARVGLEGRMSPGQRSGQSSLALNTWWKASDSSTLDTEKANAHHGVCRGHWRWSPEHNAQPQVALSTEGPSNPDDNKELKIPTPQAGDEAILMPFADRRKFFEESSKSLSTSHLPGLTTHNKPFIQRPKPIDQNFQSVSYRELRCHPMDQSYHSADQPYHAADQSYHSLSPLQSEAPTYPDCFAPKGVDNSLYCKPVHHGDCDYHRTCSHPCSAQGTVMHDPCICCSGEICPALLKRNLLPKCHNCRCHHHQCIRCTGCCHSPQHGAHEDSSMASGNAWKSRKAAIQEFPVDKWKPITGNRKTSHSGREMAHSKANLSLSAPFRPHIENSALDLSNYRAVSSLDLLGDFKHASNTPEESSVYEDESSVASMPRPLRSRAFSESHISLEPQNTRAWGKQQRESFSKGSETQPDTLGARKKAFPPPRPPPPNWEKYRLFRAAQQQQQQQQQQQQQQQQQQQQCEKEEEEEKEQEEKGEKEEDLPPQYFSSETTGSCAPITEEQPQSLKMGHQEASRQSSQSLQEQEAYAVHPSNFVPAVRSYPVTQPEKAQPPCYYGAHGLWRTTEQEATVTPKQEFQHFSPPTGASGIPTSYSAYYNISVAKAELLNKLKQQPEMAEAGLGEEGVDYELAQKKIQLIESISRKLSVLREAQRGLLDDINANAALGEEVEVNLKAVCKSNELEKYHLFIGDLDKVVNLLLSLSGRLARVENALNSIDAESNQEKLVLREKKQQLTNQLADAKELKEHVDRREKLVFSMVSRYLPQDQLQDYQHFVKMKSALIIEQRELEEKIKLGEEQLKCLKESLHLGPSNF

[4] = molecular target: T5, GST-PDZΔ14 (Shrm4-PDZ domain without its first 14 amino acids) (human) (UniProt Q9ULL8); test: pull-down; GST fusion proteins of the Shrm4-PDZ domain on extracts of 18DIV rat cultured hippocampal neurons or rat brain; western blot; only the target purified
T5 sequence: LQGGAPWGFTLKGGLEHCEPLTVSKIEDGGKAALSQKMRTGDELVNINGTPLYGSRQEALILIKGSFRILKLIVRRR

[5] = molecular target: T3, GST-PDZ (Shrm4-PDZ domain, aa 1–91); test: as above

GABAB1b-myc (receptor)
binding (Shrm4-V5 (human)): binds

His-tagged IC-2C (DIC)
binding [1]: binds | binding [2]: binds

dynein intermediate chain (DIC), endogenous in rat brain
binding [3]: binds | binding [4]: no binding | binding [5]: binds
